Measurements as given in US9815866B2, “Peptides that bind to epithelial cell adhesion molecule” (JAPANESE FOUNDATION FOR CANCER RESEARCH, priority 2012, dated 2017).
Some results were stated once for a whole list of compounds, not compound by compound. Bridge positions count the residues as written; N and C are the ends. Peptide text beside a SMILES is read from it.

Target: T1, EpCAM (Homo sapiens, UniProt P16422)
T1 construct: with insertions myc and His tags at the C terminus of the extracellular domain; myc (C); made in house; host or cells: HEK-293T
T1 sequence (P16422 24-265 limits assumed): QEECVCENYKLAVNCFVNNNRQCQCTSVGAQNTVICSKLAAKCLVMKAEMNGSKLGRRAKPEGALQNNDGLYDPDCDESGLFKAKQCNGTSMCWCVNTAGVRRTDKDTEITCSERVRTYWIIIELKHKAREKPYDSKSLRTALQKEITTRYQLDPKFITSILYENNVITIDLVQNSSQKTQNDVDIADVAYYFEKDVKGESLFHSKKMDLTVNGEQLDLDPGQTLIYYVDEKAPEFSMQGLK
Test: Dissociation constant of EpCAM-binding peptide and EpCAM by fluorescence depolarization method
Details: ratio to Ep301
Protocol: The obtained EpCAM peptides were assayed for their strength of binding to EpCAM by the fluorescence depolarization method, which is a method for evaluating the interaction between molecules. Each fluorescently labeled EpCAM peptide and EpCAM are used to determine the strength of binding from the kinetics of depolarization by Brownian movement.
Each FITC-modified EpCAM peptide or control peptide was suspended at a concentration of approximately 100 μM in PBS. After centrifugation, the supernatant was collected and diluted 10-fold, and the absorbance was measured at 495 nm From the measurement value, the molar concentration of the peptide was determined using the formula of Beer-Lambert of the following expression 1: A=E×b×C [Expression 1]
EpCAM is diluted with PBS into several concentrations from 0 until reaching equilibrium (40 nM for the Ep133 peptide), and the FITC-modified peptide whose precise concentration has been measured by the aforementioned method is added to the dilutions thus prepared. […]
The dissociation constants of the two types of peptides Ep133 (FIG. 2(A)) and Ep114 (FIG. 2(C)), which were obtained in the present invention and had the high ability to bind to EpCAM, were measured by the fluorescence depolarization method. […]

Row | SMILES | strength of binding to EpCAM compared with Ep301
1 | CC[C@H](C)[C@@H]1NC(=O)[C@H](CC(N)=O)NC(=O)[C@H](CCCNC(=N)N)NC(=O)[C@H](C(C)C)NC(=O)[C@@H](NC(=O)[C@H](CCC(N)=O)NC(=O)[C@H](CC(C)C)NC(=O)[C@H](Cc2c[nH]cn2)NC(=O)[C@@H](N)CCCCN)CSSC[C@@H](C(=O)N[C@@H](Cc2c[nH]c3ccccc23)C(=O)N[C@@H](CO)C(=O)O)NC1=O [Ep114, KHLQCVRNICWS] (H-KHLQCVRNICWS-OH; disulfide 5-10; N-terminus and C-terminus assumed) | at least 10 times
2 | CC(C)C[C@@H]1NC(=O)[C@@H](NC(=O)[C@H](Cc2c[nH]cn2)NC(=O)[C@H](CC(C)C)NC(=O)[C@H](Cc2c[nH]cn2)NC(=O)[C@@H](N)CCC(=O)O)CSSC[C@@H](C(=O)N[C@@H](Cc2c[nH]c3ccccc23)C(=O)N2CCC[C@H]2C(=O)O)NC(=O)[C@H](CC(C)C)NC(=O)[C@H](CO)NC(=O)CNC1=O [Ep133, EHLHCLGSLCWP] (H-EHLHCLGSLCWP-OH; disulfide 5-10; N-terminus and C-terminus assumed) | at least 10 times
